Measurements reported in PubChem BioAssay AID504804 (Drosophila RNAi Screening Center, 2011)
The screen tested about 19,000 reagents; below is an unselected part of those with a known target gene and a result. In the full data, 47 (0.25%) were called active. 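Signals are raw, not normalised; exact z-scores behind calls not deposited; actives needed confirmation, so some wells reaching 2 SD are inactive.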 Unmarked entries are inactive. A plus sign joins genes that one reagent is predicted to hit. Reagent sequences are not shown.

Test: 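dsRNAs that improve Kc cell survival under doxorubicin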 (primary screen)
System: Drosophila Kc cells
Reagent: long dsRNA against Drosophila genes, 0.5 µg dsRNA per well
Duration: 96 h (48 h knock-down, then 48 h drug)
Conditions: doxorubicin 5 µg/ml for 48 h, added 48 h after dsRNA
Measurement: 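Luminescent ATP counts per replicate, not normalised, reflecting viable cells after 48 h dsRNA knock-down followed by 48 h of 5 µg/ml doxorubicin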
Scale: raw ATP luminescence: higher = more viable cells, protection from doxorubicin
Active means: 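z-score of 2 or more over plate mean in both duplicates, retained only when retests and separate dsRNAs confirm the protection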

The opening 2 records, ahead of the listing:
no.	predicted target	DRSC id	raw ATP luminescence, replicate 1	raw ATP luminescence, replicate 2
1	dx	DRSC18767	25700	42290
2	CG6724	DRSC02983	39083	69310

Main list, from the start:
no.	predicted target	DRSC id	raw ATP luminescence, replicate 1	raw ATP luminescence, replicate 2
1	dx	DRSC18767	25700	42290
2	CG6724	DRSC02983	39083	69310
3	CG15140	DRSC02440	74690	80607
4	CG10494	DRSC04072	93507	62357
5	Cyp12a4	DRSC16620	39800	36770
6	esn	DRSC05039	88567	67577
7	esn	DRSC07612	46293	82647
8	CG14304	DRSC14783	47410	43030
9	CG12702	DRSC19487	2.82e5	2.39e5
10	senju	DRSC02366	26937	38257
11	CG15629	DRSC00464	38973	36797
12	isoQC	DRSC11790	66070	76113
13	CG40045	DRSC21232	2.10e5	2.25e5
14	tj	DRSC02011	59567	51697
15	CG31029	DRSC15422	63600	60770
16	CG3036	DRSC00260	2.79e5	2.57e5
17	CG3036	DRSC00562	1.17e5	83503
18	ninaB	DRSC16807	84610	85200
19	Nf-YA	DRSC10385	62633	40917
20	Cad87A	DRSC16161	47943	22053
21	GlcAT-P	DRSC10603	39407	41117
22	GlcAT-P	DRSC10604	51273	59047
23	CG33981 + fab1	DRSC07412	55317	68597
24	RpL31	DRSC06716	23367	31777
25	IntS8	DRSC07417	47250	49233
26	CG11911	DRSC00331	1.15e5	71107
27	sona	DRSC04089	40803	52430
28	sona	DRSC04574	34490	38843
29	sona	DRSC04575	37110	43840
30	Tak1	DRSC20390	2.43e5	2.46e5
31	Tak1	DRSC20561	3.51e5	3.17e5
32	Tak1	DRSC20562	3.98e5	3.03e5
33	CG42260	DRSC03953	65853	49187
34	CG42260	DRSC04172	71900	52560
35	CG42260	DRSC04385	61903	61717
36	Trs23	DRSC03190	58167	79407
37	LSm3	DRSC15920	67920	63300
38	Ptp69D	DRSC11258	83310	54857
39	Polr1H	DRSC14594	50290	62057
40	gem	DRSC06093	56493	50120
41	gem	DRSC06847	35943	66317
42	CG5167	DRSC15728	55463	60163
43	RfC3	DRSC03411	40043	71647
44	CG6650	DRSC10685	25660	23137
45	CG31142	DRSC13647	1.74e5	2.10e5
46	Opa1	DRSC07191	66347	43870
47	CG12992	DRSC19512	2.75e5	2.81e5
48	Dtg	DRSC15998	63920	27920
49	CG15534	DRSC15070	28420	33530
50	CG3770	DRSC04416	73677	61003
51	CG6294 + CG6299 + CG15642	DRSC19981	3.14e5	3.28e5
52	veil	DRSC06892	55753	77523
53	CG15657	DRSC04248	31203	36713
54	CG13473	DRSC10017	25737	23303
55	Sbp2	DRSC10766	30960	35640
56	CheA46a	DRSC05184	64257	69010
57	Pkg21D	DRSC00772	1.15e5	70803
58	pum	DRSC12722	74273	54850
59	pum	DRSC12726	46427	88413
60	pum	DRSC17037	61820	59673
61	pum	DRSC17038	67120	53317
62	Rrp4	DRSC04434	52113	48247
63	vilya	DRSC18588	44620	45000
64	CG30020	DRSC06252	1.57e5	1.64e5
65	CG30020	DRSC06730	48950	94333
66	CG9016	DRSC03127	30680	41777
67	CG12493	DRSC08279	92460	78763
68	Prosbeta2R1	DRSC18154	32380	45620
69	CG12159	DRSC06114	33057	82997
70	Pi3K68D	DRSC11253	54277	40310
71	Spn42Da	DRSC05025	37467	1.08e5
72	CG10469	DRSC09729	77627	87253
73	ApepP	DRSC01866	93290	84157
74	dar1	DRSC08049	1.27e5	1.46e5
75	CG11035	DRSC14287	67363	23167
76	Lectin-galC1	DRSC03362	68137	61337
77	RluA-1	DRSC02240	35747	79083
78	RluA-1	DRSC03060	40143	76673
79	PH4alphaSG2	DRSC15037	60890	48010
80	Dh31	DRSC02196	32360	63003
81	CG42582 (retired record)	DRSC20675	2.15e5	2.31e5
82	BG642163	DRSC00342	33223	31510
83	BG642163	DRSC00343	25390	37600
84	Desi	DRSC14909	64663	67567
